According to patent publication CN112794900A:
No constants are given. Whether binding was seen depends on the method and setting. Some binding calls cover weakened binding; strength is not graded here.

Key:
[1] = biological target: T1, cBIN1 Isoform II2 (cBIN1 exon1-13&18-20) (UniProt O00499); assay: ELISA, antigen coated
T1 sequence (looked up): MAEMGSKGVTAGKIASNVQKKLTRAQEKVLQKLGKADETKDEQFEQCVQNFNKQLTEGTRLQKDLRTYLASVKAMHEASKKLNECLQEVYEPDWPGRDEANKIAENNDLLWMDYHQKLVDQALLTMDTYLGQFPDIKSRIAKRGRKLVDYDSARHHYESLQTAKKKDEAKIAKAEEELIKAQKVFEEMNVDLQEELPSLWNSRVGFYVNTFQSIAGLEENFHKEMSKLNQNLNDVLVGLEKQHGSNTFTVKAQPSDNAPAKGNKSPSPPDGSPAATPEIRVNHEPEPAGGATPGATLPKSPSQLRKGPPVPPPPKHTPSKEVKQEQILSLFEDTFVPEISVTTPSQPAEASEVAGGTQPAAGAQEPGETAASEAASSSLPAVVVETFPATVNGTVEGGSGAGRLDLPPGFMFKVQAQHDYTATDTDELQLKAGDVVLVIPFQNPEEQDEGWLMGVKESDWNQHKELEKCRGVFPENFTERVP

[2] = biological target: T1, cBIN1 Isoform II2 (cBIN1 exon1-13&18-20); assay: Western blot, primary antibody at 10μg/ml

B1: 鼠源抗体 8G1-D7-F5 (抗人源cBIN1 exon13抗体) (antibody, V domains shown)
VH: EVQLQQSGAELVRPGASVKLSCTTSGFNIKDSYMHWVKQRPEQGLEWIGRIDPEDDDAVYAPKFQDRATMTADTSSNTAYLHLSSLTSDDTAVYYCTTSTLVATPWFFDVWGTGTTVTVSS
VL: DIQMTQTTSSLSASLGDRVTISCSASQDINNYLNWYQQKPDGTVKLLIYYTSTLHSGVPSRFSGSGSGTDYSLTITNLEPEDFATYYCQQYTHNLPWTFGGGTKLEIK
Which binding [1] does the source give for B1 here?
Its binding is “binds”.

And the binding [2]?
Its binding is “binds”.
